Drawing on paper PMC9425024, this text covers binding for one molecule.

In the test the target is T1, bZIP25-cYFP (UniProt Q9M1G6).
T1 sequence: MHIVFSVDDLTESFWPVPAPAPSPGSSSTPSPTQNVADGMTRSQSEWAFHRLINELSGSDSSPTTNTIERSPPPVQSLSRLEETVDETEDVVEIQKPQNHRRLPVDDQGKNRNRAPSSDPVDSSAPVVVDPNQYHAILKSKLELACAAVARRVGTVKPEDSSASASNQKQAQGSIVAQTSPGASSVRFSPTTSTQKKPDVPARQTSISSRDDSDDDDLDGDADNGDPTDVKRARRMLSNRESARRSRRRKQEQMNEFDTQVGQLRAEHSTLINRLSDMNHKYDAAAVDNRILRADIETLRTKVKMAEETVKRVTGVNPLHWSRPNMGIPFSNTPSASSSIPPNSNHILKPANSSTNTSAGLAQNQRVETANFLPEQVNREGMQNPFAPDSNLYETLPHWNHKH
The test is described as follows: split reporter; BiFC with split YFP (pA7-nYFP, pA7-cYFP, CaMV35S promoter), pairs cotransformed into A. thaliana Col-0 protoplasts, fluorescence microscopy; binder written here = nYFP fusion, target = cYFP fusion.

No constants are given. Whether binding was seen depends on the method and setting. Binding seen in cells or lysates may run through a third protein. Some binding calls cover weakened binding; strength is not graded here. Where a sequence is shown, tags or fusion partners need not be part of it.

B1: bZIP1 (protein, UniProt Q9FGX2 1-145)
chain: MANAEKTSSGSDIDEKKRKRKLSNRESARRSRLKKQKLMEDTIHEISSLERRIKENSERCRAVKQRLDSVETENAGLRSEKIWLSSYVSDLENMIATTSLTLTQSGGGDCVDDQNANAGIAVGDCRRTPWKLSCGSLQPMASFKT
As for B1, the binding result was “binds”.
